# Results from PubChem BioAssay AID540303 (National Center for Advancing Translational Sciences (NCATS), 2011).
# Among all 330,000 compounds or so, about 1,000 (0.3%) were called active. The shares of active, inactive and inconclusive entries below differ from those in the screen. Calls come from the whole dose curve; as a rule, active = well fitted inhibition curve with a large enough effect; inconclusive = small, poorly fitted or top-dose-only effect; inactive = no such curve, though single readings can be large or run the other way; tested in mouse RAW 264.7 cells. A potency beside an inconclusive call is a rough fit, not a confirmed value.
# Test: qHTS for Inhibitors of Cell Surface uPA Generation; note: nearly all actives have a fitted effect of over 55% in size
# Conditions: cell surface uPA generation assay; series mostly up to 38.3 µM
# Method in brief: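 Using RAW 264.7 macrophages, the screen measures whether compounds keep cellular ATP up by preventing uPA-driven LF translocation. Treatment lasted 24 h at 37 C, with a final top concentration of 38.3 uM, and luminescence was the readout.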
# Potency is the fitted concentration of half-maximal effect.
row,Compound,Potency
1,COC(=O)c1cccc(CSc2nc3ccccc3[nH]2)c1,"inconclusive: 6.31 µM [inhibitor, partial curve, poor fit]"
2,CC(C)Cn1cnc2c(SCc3ccccc3F)nc(N)nc21,inactive
3,Cc1n[nH]c(=O)c2c(NC(=O)CSc3nnc(-c4ccco4)n3C)oc(C)c12,"inconclusive: 11.2 µM [inhibitor, single point]"
4,COc1ccc(NC(=S)NCCN2CCC(C)CC2)cc1Cl,inactive
5,COc1c(O)cc2oc(-c3ccc(O)c(O)c3)cc(=O)c2c1O,"inconclusive: 6.31 µM [inhibitor, partial curve, poor fit]"
6,COc1ccc(C(=O)NOCc2ccccc2)cc1,"inconclusive: 11.2 µM [inhibitor, single point]"
7,COCCCNc1c2c3c(cccc3[nH]c1=O)C(=O)c1ccccc1-2,"inconclusive: 5.01 µM [inhibitor, partial curve]"
8,Cc1cc(N2CCC(C)CC2)nc(-c2ccccc2O)n1,inactive
9,Cc1ccc(Cl)cc1NC(=S)NN,"inconclusive: 22.4 µM [inhibitor, single point]"
10,O=C(NCCN1CCCCC1)Nc1cccc(C(F)(F)F)c1,inactive
11,O=C(NCC1CCCO1)c1cccc2c1C(=O)c1ccc(N3CCC(Cc4ccccc4)CC3)cc1S2(=O)=O (stereo not given),"inconclusive: 11.2 µM [inhibitor, partial curve, poor fit]"
12,Cc1ccc2c(c1)[C@H]1[C@H](CO2)[C@H](c2ccccc2)[C@]2(C)C(=O)Nc3ccc(Cl)cc3C(=O)N12,"inconclusive: 28.2 µM [inhibitor, single point]"
13,CCC(CC)CN1C(N(C)C)=NC[C@@H]1CC(C)C,"inconclusive: 3.98 µM [inhibitor, partial curve, poor fit]"
14,COc1cccc(NC(=O)Nc2nccc(C)n2)c1,active: 2.51 µM
15,CCc1cccc(NS(=O)(=O)c2c(C)nc3scc(C)n3c2=O)c1,inactive
16,CCCSC1=C(C#N)C(c2ccc(OC)cc2)C2=C(CC(C)(C)CC2=O)N1 (stereo not given),inactive
17,Cc1cc(C)c(NC(=O)CN(C2CCCCC2)C2CCCCC2)c(C)c1,inactive
18,Cc1nn(-c2ccccc2)c(Cl)c1/C=N/NC(=O)c1cccc(S(=O)(=O)N2CCCC2)c1,inactive
19,CC[C@]12c3[nH]c4cc(-c5ccco5)ccc4c3CCN1C(=O)[C@@H](CC(=O)NC/C=C(\C)CCC=C(C)C)C[C@@H]2C(=O)N1CCN(C(=O)C2CC2)CC1,"inconclusive: 28.2 µM [inhibitor, single point]"
20,N#Cc1ccccc1NC(=O)CNc1cc(S(=O)(=O)N2CCOCC2)ccc1NCC1CCCO1 (stereo not given),"inconclusive: 8.91 µM [inhibitor, partial curve, poor fit]"
21,Cc1cc(C(=O)Nc2sc3c(c2C#N)CCC3)no1,"inconclusive: 2.82 µM [inhibitor, full curve, poor fit]"
22,C=CCn1c2ccccc2c(=O)c2cc(C#Cc3ccccn3)ccc21,"inconclusive: 10 µM [inhibitor, single point]"
23,O=C(N/N=C\c1ccccc1OCc1ccccc1)c1ccco1,inactive
24,Cc1c([N+](=O)[O-])c(C(=O)Sc2ccc(Br)cc2)nn1C,inactive

row,Compound,Potency
1,O=C(Nc1ccn(Cc2ccccc2)n1)c1ccc(F)cc1,"inconclusive: 7.94 µM [inhibitor, partial curve, poor fit]"
2,O=C(CCc1ccccc1)NCC(=O)N/N=C/c1ccc(O)cc1O,"inconclusive: 12.6 µM [inhibitor, single point]"
3,O=C(CCl)Nc1cccc(Oc2cnccn2)c1,"inconclusive: 8.91 µM [inhibitor, partial curve]"
4,Cc1ccc(S(=O)(=O)Nc2ccccc2C(=O)Nc2nc(-c3ccc(F)cc3)cs2)cc1,active: 12.6 µM
5,Cc1coc(NC(=O)CSc2nc(-c3ccncc3)cc(C(F)(F)F)c2C#N)n1,inactive
6,COCCOC(=O)c1[nH]c2c(c1C)C(=O)CC(c1cccs1)C2 (stereo not given),active: 1 µM
7,O=C(O)c1ccc(-c2nnn(Cc3cccc(C(F)(F)F)c3)n2)cc1,inactive
8,O=c1c2ccsc2ncn1Cc1cccc(C(F)(F)F)c1,inactive
9,CCCS(=O)(=O)c1c(S(=O)(=O)CCC)c2c(C)cccn2c1C(=O)OC,inactive
10,O=C(Nc1ccc(CN2CCOCC2)cc1)c1ccc(Br)cc1,inactive
11,Cc1cc(SCc2ccc(C(F)(F)F)cc2)nc(=O)[nH]1,inactive
12,COC(=O)c1cc(N=Cc2c(O)c3ccccc3oc2=O)cc(C(=O)OC)c1,"inconclusive: 31.6 µM [inhibitor, single point]"
13,Nc1nc(OCC2CCCCC2)c2[nH]cnc2n1,"inconclusive: 8.91 µM [inhibitor, single point]"
14,N#Cc1nc(-c2ccc([N+](=O)[O-])cc2)oc1N1CCCCC1,inactive
15,CCc1nnc(NC(=O)CSc2ccc(-c3ccccc3OC)nn2)s1,inactive
16,COc1ccc2cc(-c3nc4ccccc4n3C)c(=O)oc2c1,inactive
17,CCC(CC)C(=O)N1CC(=O)Nc2ccc(F)cc2C1c1ccc(F)cc1 (stereo not given),"inconclusive: 28.2 µM [inhibitor, single point]"
18,O=C1c2ccc(-c3ccc(F)cc3OCc3ccccc3)cc2S(=O)(=O)c2cccc(C(=O)N3CCCC3)c21,inactive
19,C=CCNc1nc2c(c(=O)n(C)c(=O)n2C)n1Cc1ccc(F)cc1,"inconclusive: 14.1 µM [inhibitor, partial curve, poor fit]"
20,Cc1ccc(C#N)c(SCc2nnc(-c3ccc(Cl)cc3)o2)n1,"inconclusive: 3.55 µM [inhibitor, partial curve, poor fit]"
21,Cc1ccc(-n2nnnc2SCC(=O)NCC2(N3CCCCC3)CCCCC2)c(C)c1,"inconclusive: 3.55 µM [inhibitor, partial curve, poor fit]"
22,Cc1cc(C)cc(C(=O)Nc2cccc(NC(=O)c3ccco3)c2)c1,"inconclusive: 2.82 µM [inhibitor, partial curve]"
23,COc1ccc(C2=Nn3c(nnc3-c3ccccc3C(F)(F)F)SC2)cc1OC1CCOC1 (stereo not given),"inconclusive: 0.0282 µM [inhibitor, full curve, poor fit]"
24,NNC(=O)C(=O)Nc1ccc(O)cc1,"inconclusive: 11.2 µM [inhibitor, single point]"

row,Compound,Potency
1,CCC(=O)Nc1ccc(-c2ccc(N3CCC(C)CC3)nn2)cc1,"inconclusive: 2.82 µM [inhibitor, full curve, poor fit]"
2,COC(=O)C1=C(C)N=C2SC(C#N)=C(N)N2C1c1cccc(OC)c1 (stereo not given),inactive
3,CC(C(c1ccc2c(c1)OCO2)c1c(N)n(C)c(=O)n(C)c1=O)[N+](=O)[O-] (stereo not given),"inconclusive: 12.6 µM [inhibitor, partial curve, poor fit]"
4,CC(C)c1ccc(CN2CCN(C(=O)CCl)CC2)cc1,active: 3.55 µM
5,O=C(N/N=C/c1cccs1)c1n[nH]c2c1CCCC2,"inconclusive: 6.31 µM [inhibitor, single point]"
6,Cc1cccc(N2CCCC2=Nc2ccc(Br)cc2C#N)c1,"inconclusive: 10 µM [inhibitor, single point]"
7,COC(=O)C1CCN(Cc2cn(Cc3ccccc3)nc2-c2cc3ccccc3o2)CC1,inactive
8,CC(C)(C)c1ccc(S(=O)(=O)N2CCC(c3nc4ccc(Cl)cc4[nH]3)CC2)cc1,"inconclusive: 22.4 µM [inhibitor, single point]"
9,COc1cc(C(=O)NC2CCN(C)CC2)ccc1Nc1ncc2c(n1)N(C1CCCCC1)CCC(=O)N2C,"inconclusive: 3.55 µM [inhibitor, full curve, poor fit]"
10,O=[N+]([O-])c1ccc2[nH]c3nc4ccccc4nc3c2c1,"inconclusive: 0.891 µM [inhibitor, partial curve, poor fit]"
11,CCOc1ccc2nc(SCC(=O)NCc3ccc(OC)c(OC)c3)[nH]c2c1,inactive
12,Brc1ccc(Cn2c(-c3ccc(Br)o3)nc3ccccc32)o1,"inconclusive: 2 µM [inhibitor, partial curve, poor fit]"
13,COc1ccc(C(=O)/C(C#N)=N/Nc2cccc([N+](=O)[O-])c2)cc1,"inconclusive: 10 µM [inhibitor, partial curve, poor fit]"
14,O=C(Nc1ccc(-c2nc3cccnc3s2)cc1)c1ccc(Cl)nc1,inactive
15,O=C(CCS(=O)(=O)c1ccccc1F)Nc1ccc(N2CCN(Cc3ccccc3)CC2)cc1,"inconclusive: 7.08 µM [inhibitor, partial curve, poor fit]"
16,O=C(N/N=C\c1ccc(Cl)s1)C1COc2ccccc2O1 (stereo not given),"inconclusive: 28.2 µM [inhibitor, single point]"
17,CCC(=O)c1ccc2c(c1)N(CCCN(C)C)c1ccccc1S2,"inconclusive: 10 µM [inhibitor, partial curve, poor fit]"
18,O=C(NC1CCCCC1)C(c1ccccc1)N1CCc2ccccc21 (stereo not given),"inconclusive: 11.2 µM [inhibitor, single point]"
19,COc1cccc(NC(=O)CN(C)C(=O)[C@@H]2CCCN2C(=O)c2cccs2)c1,"inconclusive: 5.01 µM [inhibitor, partial curve, poor fit]"
20,Cc1oc2c(c1C(=O)N1CCOCC1)C(=O)c1ccccc1C2=O,active: 2.51 µM
21,O=C(Nc1nc2c(s1)CCCC2)c1ccc2ncsc2c1,"inconclusive: 14.1 µM [inhibitor, partial curve, poor fit]"
22,CCCCNC(=O)NNc1nc(Cl)cc(C)c1C#N,"inconclusive: 14.1 µM [inhibitor, partial curve, poor fit]"

# Looked up above:
# Potency, O=C(NC1CCCCC1)C(c1ccccc1)N1CCc2ccccc21 (stereo not given) reads inconclusive: 11.2 µM [inhibitor, single point]
# Potency, CC(C(c1ccc2c(c1)OCO2)c1c(N)n(C)c(=O)n(C)c1=O)[N+](=O)[O-] (stereo not given) reads inconclusive: 12.6 µM [inhibitor, partial curve, poor fit]
# Potency, O=C(Nc1ccc(-c2nc3cccnc3s2)cc1)c1ccc(Cl)nc1 reads inactive
# Potency, COC(=O)C1CCN(Cc2cn(Cc3ccccc3)nc2-c2cc3ccccc3o2)CC1 reads inactive
# Potency, CC(C)c1ccc(CN2CCN(C(=O)CCl)CC2)cc1 reads active: 3.55 µM
